Assay results from publication PMC10007777, “Glycyrrhizic acid inhibits myeloid differentiation of hematopoietic stem cells by binding S100 calcium binding protein A8 to improve cognition in aged mice” (Immunity & Ageing : I & A, 2023).
No constants are given. Whether binding was seen depends on the method and setting. Some entries that bind do so weakly or less than the wild type.

Molecular target: T1, S100 calcium-binding protein 8 (S100A8) protein (UniProt P27005)
T1 sequence: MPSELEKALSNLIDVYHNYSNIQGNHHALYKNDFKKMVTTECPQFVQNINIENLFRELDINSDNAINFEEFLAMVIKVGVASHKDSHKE
Experiment: SPR; S100A8 immobilised on a COOH chip; S100A9 at 800, 400, 200, 100 and 50 μM as printed in the legend; also run with GA (glycyrrhizic acid) bound first; both purified

binding: binds
B1: S100A9 (protein, UniProt P31725 1-113)
chain: MANKAPSQMERSITTIIDTFHQYSRKEGHPDTLSKKEFRQMVEAQLATFMKKEKRNEALINDIMEDLDTNQDNQLSFEECMMLMAKLIFACHEKLHENNPRGHGHSHGKGCGK
